Laboratory results from PMC12482183.
Results are given in words; binding and its absence hold for the method and conditions named. Binding seen in cells or lysates may run through a third protein. Here binding means that the protein was enriched with, or labelled near, the bait; the list need not be complete.

By UniProt entry, the sequences of proteins in these tests, tags left out.
UniProt P0A988: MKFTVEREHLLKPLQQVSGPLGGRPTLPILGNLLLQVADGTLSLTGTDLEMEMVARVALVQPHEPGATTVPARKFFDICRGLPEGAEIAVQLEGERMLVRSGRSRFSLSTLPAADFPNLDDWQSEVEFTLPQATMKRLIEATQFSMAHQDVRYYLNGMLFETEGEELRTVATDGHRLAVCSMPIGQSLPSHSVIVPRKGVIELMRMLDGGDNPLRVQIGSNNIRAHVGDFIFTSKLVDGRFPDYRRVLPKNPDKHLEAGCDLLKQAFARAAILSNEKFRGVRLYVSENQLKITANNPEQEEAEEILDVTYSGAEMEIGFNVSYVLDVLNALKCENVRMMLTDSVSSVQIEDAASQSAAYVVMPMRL
UniProt P0A6M8: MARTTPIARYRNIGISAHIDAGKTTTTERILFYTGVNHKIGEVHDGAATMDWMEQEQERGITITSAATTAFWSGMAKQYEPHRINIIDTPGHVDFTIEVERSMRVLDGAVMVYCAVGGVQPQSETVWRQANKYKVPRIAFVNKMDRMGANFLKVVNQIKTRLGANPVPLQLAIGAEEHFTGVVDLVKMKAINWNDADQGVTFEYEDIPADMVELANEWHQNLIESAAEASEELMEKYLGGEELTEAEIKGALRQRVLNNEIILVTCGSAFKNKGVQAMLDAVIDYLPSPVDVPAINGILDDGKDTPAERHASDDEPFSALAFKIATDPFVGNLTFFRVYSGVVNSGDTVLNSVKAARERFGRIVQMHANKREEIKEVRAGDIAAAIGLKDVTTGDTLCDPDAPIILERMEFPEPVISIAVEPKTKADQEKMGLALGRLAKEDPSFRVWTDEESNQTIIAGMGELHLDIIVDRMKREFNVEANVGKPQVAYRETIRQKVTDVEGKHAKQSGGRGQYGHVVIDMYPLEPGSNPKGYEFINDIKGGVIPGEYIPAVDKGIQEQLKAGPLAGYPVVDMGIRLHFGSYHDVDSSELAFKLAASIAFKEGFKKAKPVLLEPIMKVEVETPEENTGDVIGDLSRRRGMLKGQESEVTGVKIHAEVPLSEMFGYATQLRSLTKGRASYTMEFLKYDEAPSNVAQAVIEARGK
UniProt P0A6P1: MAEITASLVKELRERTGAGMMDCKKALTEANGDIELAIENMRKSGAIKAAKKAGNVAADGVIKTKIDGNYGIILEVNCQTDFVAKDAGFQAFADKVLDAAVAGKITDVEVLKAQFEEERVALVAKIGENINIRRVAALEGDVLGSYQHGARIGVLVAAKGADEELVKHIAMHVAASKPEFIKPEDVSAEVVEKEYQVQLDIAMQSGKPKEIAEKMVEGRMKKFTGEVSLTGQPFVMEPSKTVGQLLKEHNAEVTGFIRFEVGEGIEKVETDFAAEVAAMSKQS

B1: translation factor EttA (protein, UniProt P0A9W3 1-555)
chain: MAQFVYTMHRVGKVVPPKRHILKNISLSFFPGAKIGVLGLNGAGKSTLLRIMAGIDKDIEGEARPQPDIKIGYLPQEPQLNPEHTVRESIEEAVSEVVNALKRLDEVYALYADPDADFDKLAAEQGRLEEIIQAHDGHNLNVQLERAADALRLPDWDAKIANLSGGERRRVALCRLLLEKPDMLLLDEPTNHLDAESVAWLERFLHDFEGTVVAITHDRYFLDNVAGWILELDRGEGIPWEGNYSSWLEQKDQRLAQEASQEAARRKSIEKELEWVRQGTKGRQSKGKARLARFEELNSTEYQKRNETNELFIPPGPRLGDKVLEVSNLRKSYGDRLLIDDLSFSIPKGAIVGIIGPNGAGKSTLFRMISGQEQPDSGTITLGETVKLASVDQFRDSMDNSKTVWEEVSGGLDIMKIGNTEMPSRAYVGRFNFKGVDQGKRVGELSGGERGRLHLAKLLQVGGNMLLLDEPTNDLDIETLRALENALLEFPGCAMVISHDRWFLDRIATHILDYQDEGKVEFFEGNFTEYEEYKKRTLGADALEPKRIKYKRIAK
B2: elongation factor Efp (EF-P) (protein, UniProt P0A6N4 1-188)
chain: MATYYSNDFRAGLKIMLDGEPYAVEASEFVKPGKGQAFARVKLRRLLTGTRVEKTFKSTDSAEGADVVDMNLTYLYNDGEFWHFMNNETFEQLSADAKAIGDNAKWLLDQAECIVTLWNGQPISVTPPNFVELEIVDTDPGLKGDTAGTGGKPATLSTGAVVKVPLFVQIGEVIKVDTRSGEYVSRVK

molecular target: His-tagged β-clamp (E. coli) (UniProt P0A988); assay: affinity purification with mass spectrometry; His-tagged β-clamp pulled down on TALON Metal Affinity Resin from E. coli BL21 extract; His-tag only control; trypsination, LC-MS/MS, LFQ

binding, binds:
elongation factor FusA (EF-G) (from UniProt P0A6M8 1-704)
elongation factor Tsf (EF-Ts) (from UniProt P0A6P1 1-283)
B1
B2
